Experiment: Solubility of cannabidiol isolate in glycerol / propylene glycol / water solutions
Assay type: physicochemical
Details: Isolate 10 mg/mL, Glycerol 36 w/w

In the case of `C=C(C)[C@@H]1CCC(C)=C[C@H]1c1c(O)cc(CCCCC)cc1O` [Isolate, cannabidiol], the Soluble (PG 52.09 w/w, Water 11 w/w) is reported as “YES” and the Soluble (PG 53.09 w/w, Water 10 w/w) is reported as “YES”.

— patent US20240324654A1, “AEROSOLIZABLE MATERIAL” (Nicoventures Trading Limited, priority 2019, published 2024)
